Patent publication US20250223301A1, “KINASE INHIBITORS, PREPARATION METHODS AND USES THEREOF” (InventisBio Co., Ltd., priority 2022, published 2025)
The structures given here were assigned with low confidence; some may be wrong.

Test system: PBMC
Test: Human PBMC IL-2 assay
Conditions: read-out: PBMC IL-2 assay EC50, anti-CD3/CD28 stimulation overnight, IL-2 level

Compound: CC[C@@H]1C[C@@H](Oc2ccc(OC(F)(F)F)cc2)CCN1c1nc(=O)n(C)c2ccc(C#N)nc12
- EC50: 918 nM
